{"source": "PubChem BioAssay AID1508597, Cure First, 2020", "screen": "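Genes whose silencing sensitises or protects ovarian cancer cells against rucaparib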 (primary screen)", "cell system": "human ovarian carcinoma lines grown from tumours: OCI-P5x (papillary serous) and OCI-C5x (clear cell)", "reagents": "siRNA pool against human genes, 1.25 pmol siRNA per well", "timing": "72 h or 96 h, depending on the cell culture", "treatment": "rucaparib 20 µM (about IC30) or vehicle, present until read-out", "rucaparib or vehicle": "Rucaparib", "cell line": "OCI-P5x (serous)", "measurement": "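Luminescent ATP-based viability assay read 72 or 96 h after transfection, depending on culture, given as normalised percent viability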", "scale": "viability, normalised: higher = more viable cells remaining", "hit rule": "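a well counts as a hit if its normalised viability is under 80 percent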", "calls": "active = viability under 80%; inactive = viability 80% or more", "note": "This is an unselected part of the about 2,100 reagents, under one of the conditions tested. 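Calls flag viability under 80% in either arm, not effects specific to rucaparib; the reference for percent is not stated.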 Unmarked entries are inactive. The record does not give: the 100% reference."}
The opening 4 records, ahead of the listing:
{"target gene": "MBD6", "technical replicate": "1", "viability, normalised (%)": "67.7 (active)"}
{"target gene": "MBD6", "technical replicate": "2", "viability, normalised (%)": "70.1 (active)"}
{"target gene": "MBD6", "technical replicate": "3", "viability, normalised (%)": "67.8 (active)"}
{"target gene": "DGKE", "technical replicate": "1", "viability, normalised (%)": 96.3}

The listing, from the first entry:
{"target gene": "MBD6", "technical replicate": "1", "viability, normalised (%)": "67.7 (active)"}
{"target gene": "MBD6", "technical replicate": "2", "viability, normalised (%)": "70.1 (active)"}
{"target gene": "MBD6", "technical replicate": "3", "viability, normalised (%)": "67.8 (active)"}
{"target gene": "DGKE", "technical replicate": "1", "viability, normalised (%)": 96.3}
{"target gene": "DGKE", "technical replicate": "2", "viability, normalised (%)": 102}
{"target gene": "DGKE", "technical replicate": "3", "viability, normalised (%)": 90.7}
{"target gene": "ZDHHC15", "technical replicate": "1", "viability, normalised (%)": "52.8 (active)"}
{"target gene": "ZDHHC15", "technical replicate": "2", "viability, normalised (%)": "63.1 (active)"}
{"target gene": "ZDHHC15", "technical replicate": "3", "viability, normalised (%)": "37.2 (active)"}
{"target gene": "ZKSCAN2", "technical replicate": "1", "viability, normalised (%)": "75.2 (active)"}
{"target gene": "ZKSCAN2", "technical replicate": "2", "viability, normalised (%)": "69.6 (active)"}
{"target gene": "ZKSCAN2", "technical replicate": "3", "viability, normalised (%)": "70.6 (active)"}
{"target gene": "BARD1", "technical replicate": "1", "viability, normalised (%)": "58.2 (active)"}
{"target gene": "BARD1", "technical replicate": "2", "viability, normalised (%)": "56.5 (active)"}
{"target gene": "BARD1", "technical replicate": "3", "viability, normalised (%)": "64.4 (active)"}
{"target gene": "ROS1", "technical replicate": "1", "viability, normalised (%)": 81.7}
{"target gene": "ROS1", "technical replicate": "2", "viability, normalised (%)": 101}
{"target gene": "ROS1", "technical replicate": "3", "viability, normalised (%)": "55.5 (active)"}
{"target gene": "DDX51", "technical replicate": "1", "viability, normalised (%)": "39.8 (active)"}
{"target gene": "DDX51", "technical replicate": "2", "viability, normalised (%)": "57.6 (active)"}
{"target gene": "DDX51", "technical replicate": "3", "viability, normalised (%)": "58.4 (active)"}
{"target gene": "PDE1C", "technical replicate": "1", "viability, normalised (%)": "56.7 (active)"}
{"target gene": "PDE1C", "technical replicate": "2", "viability, normalised (%)": "44.5 (active)"}
{"target gene": "PDE1C", "technical replicate": "3", "viability, normalised (%)": "49.1 (active)"}
{"target gene": "HGF", "technical replicate": "1", "viability, normalised (%)": "76.1 (active)"}
{"target gene": "HGF", "technical replicate": "2", "viability, normalised (%)": "58 (active)"}
{"target gene": "HGF", "technical replicate": "3", "viability, normalised (%)": "55.5 (active)"}
{"target gene": "DICER1", "technical replicate": "1", "viability, normalised (%)": "68.8 (active)"}
{"target gene": "DICER1", "technical replicate": "2", "viability, normalised (%)": "75.8 (active)"}
{"target gene": "DICER1", "technical replicate": "3", "viability, normalised (%)": 86.3}
{"target gene": "CNP", "technical replicate": "1", "viability, normalised (%)": "57.8 (active)"}
{"target gene": "CNP", "technical replicate": "2", "viability, normalised (%)": "63.7 (active)"}
{"target gene": "CNP", "technical replicate": "3", "viability, normalised (%)": "58.3 (active)"}
